Data as given in PubChem BioAssay AID1224830 (NIAID, 2016).
Assay: 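Regulators of TLR4 signalling towards TNF-alpha in macrophage-like cells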 (primary screen). System: human THP-1 monocytic leukaemia cells, TNF dual-luciferase reporter clone, PMA-differentiated to macrophage-like cells. Knock-down reagent: siRNA pool against human genes, 50 nM. Time to read-out: LPS for 4 h, given about 3 days after siRNA transfection. Treatment: bacterial LPS (TLR4 ligand), 10 ng/ml. Detection: 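Ratio of firefly to renilla light, scaled to the plate median and expressed as a robust z-score per replicate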. Scale: TNF reporter robust z-score: higher = stronger TNF reporter response to LPS. Hit rule: 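a well is active when its z-score exceeds 2.8 or falls below -1.5; control wells carry no call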.
The deposit covers about 18,000 reagents; below is a part drawn at random. In the full data, about 2,900 (16%) got an active call. 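Calls are made per well; low scores hint the gene aids the LPS response, high scores that it dampens it.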 Repeated entries: four replicate wells of each siRNA pool.

| gene symbol | TNF reporter robust z-score | Outcome |
| --- | --- | --- |
| TMEM41B (transmembrane protein 41B) | 0.21 | inactive |
| TMEM41B (transmembrane protein 41B) | -0.67 | inactive |
| TMEM41B (transmembrane protein 41B) | 0.04 | inactive |
| TMEM41B (transmembrane protein 41B) | 0.99 | inactive |
| EDN1 (endothelin 1) | -0.93 | inactive |
| EDN1 (endothelin 1) | -1.18 | inactive |
| EDN1 (endothelin 1) | -1.2 | inactive |
| EDN1 (endothelin 1) | -1.24 | inactive |
| C5AR1 (complement C5a receptor 1) | -0.59 | inactive |
| C5AR1 (complement C5a receptor 1) | -0.08 | inactive |
| C5AR1 (complement C5a receptor 1) | -0.07 | inactive |
| C5AR1 (complement C5a receptor 1) | -0.14 | inactive |
| DLG2 (discs large MAGUK scaffold protein 2) | 0.61 | inactive |
| DLG2 (discs large MAGUK scaffold protein 2) | 1.11 | inactive |
| DLG2 (discs large MAGUK scaffold protein 2) | 0.34 | inactive |
| DLG2 (discs large MAGUK scaffold protein 2) | 1.68 | inactive |
| OBP2B (odorant binding protein 2B) | -0.9 | inactive |
| OBP2B (odorant binding protein 2B) | 0.01 | inactive |
| OBP2B (odorant binding protein 2B) | 0.14 | inactive |
| OBP2B (odorant binding protein 2B) | -0.12 | inactive |
| OR4F5 (olfactory receptor family 4 subfamily F member 5) | -0.27 | inactive |
| OR4F5 (olfactory receptor family 4 subfamily F member 5) | 0.07 | inactive |
| OR4F5 (olfactory receptor family 4 subfamily F member 5) | 0.04 | inactive |
| OR4F5 (olfactory receptor family 4 subfamily F member 5) | 0.4 | inactive |
| GPAT3 (glycerol-3-phosphate acyltransferase 3) | 0.22 | inactive |
| GPAT3 (glycerol-3-phosphate acyltransferase 3) | 0.42 | inactive |
| GPAT3 (glycerol-3-phosphate acyltransferase 3) | -1.3 | inactive |
| GPAT3 (glycerol-3-phosphate acyltransferase 3) | 0.7 | inactive |
| GOLGA8A (golgin A8 family member A) | 1.91 | inactive |
| GOLGA8A (golgin A8 family member A) | 3.12 | active |
| GOLGA8A (golgin A8 family member A) | 2.57 | inactive |
| GOLGA8A (golgin A8 family member A) | 1.14 | inactive |
| SV2C (synaptic vesicle glycoprotein 2C) | -0.12 | inactive |
| SV2C (synaptic vesicle glycoprotein 2C) | 0.14 | inactive |
| SV2C (synaptic vesicle glycoprotein 2C) | 0 | inactive |
| SV2C (synaptic vesicle glycoprotein 2C) | -0.21 | inactive |
| FOXB2 (forkhead box B2) | -0.09 | inactive |
| FOXB2 (forkhead box B2) | -0.32 | inactive |
| FOXB2 (forkhead box B2) | 0.51 | inactive |
| FOXB2 (forkhead box B2) | 1.29 | inactive |
| ASTL (astacin like metalloendopeptidase) | 0.57 | inactive |
| ASTL (astacin like metalloendopeptidase) | 0.69 | inactive |
| ASTL (astacin like metalloendopeptidase) | 0.27 | inactive |
| ASTL (astacin like metalloendopeptidase) | 0.52 | inactive |
| GNAZ (G protein subunit alpha z) | 1.15 | inactive |
| GNAZ (G protein subunit alpha z) | 2.77 | inactive |
| GNAZ (G protein subunit alpha z) | 1.43 | inactive |
| GNAZ (G protein subunit alpha z) | 2.91 | active |
| NOCT (nocturnin) | -0.96 | inactive |
| NOCT (nocturnin) | -0.94 | inactive |
| NOCT (nocturnin) | -0.88 | inactive |
| NOCT (nocturnin) | -0.77 | inactive |
| COPG2 (coat protein complex I subunit gamma 2) | 1.59 | inactive |
| COPG2 (coat protein complex I subunit gamma 2) | 1.39 | inactive |
| COPG2 (coat protein complex I subunit gamma 2) | 4.15 | active |
| COPG2 (coat protein complex I subunit gamma 2) | 1.64 | inactive |
| EMC6 (ER membrane protein complex subunit 6) | 0.87 | inactive |
| EMC6 (ER membrane protein complex subunit 6) | 1.12 | inactive |
| EMC6 (ER membrane protein complex subunit 6) | 0.07 | inactive |
| EMC6 (ER membrane protein complex subunit 6) | -0.31 | inactive |

The list goes on; the last 20 above are carried over.
| gene symbol | TNF reporter robust z-score | Outcome |
| --- | --- | --- |
| ASTL (astacin like metalloendopeptidase) | 0.57 | inactive |
| ASTL (astacin like metalloendopeptidase) | 0.69 | inactive |
| ASTL (astacin like metalloendopeptidase) | 0.27 | inactive |
| ASTL (astacin like metalloendopeptidase) | 0.52 | inactive |
| GNAZ (G protein subunit alpha z) | 1.15 | inactive |
| GNAZ (G protein subunit alpha z) | 2.77 | inactive |
| GNAZ (G protein subunit alpha z) | 1.43 | inactive |
| GNAZ (G protein subunit alpha z) | 2.91 | active |
| NOCT (nocturnin) | -0.96 | inactive |
| NOCT (nocturnin) | -0.94 | inactive |
| NOCT (nocturnin) | -0.88 | inactive |
| NOCT (nocturnin) | -0.77 | inactive |
| COPG2 (coat protein complex I subunit gamma 2) | 1.59 | inactive |
| COPG2 (coat protein complex I subunit gamma 2) | 1.39 | inactive |
| COPG2 (coat protein complex I subunit gamma 2) | 4.15 | active |
| COPG2 (coat protein complex I subunit gamma 2) | 1.64 | inactive |
| EMC6 (ER membrane protein complex subunit 6) | 0.87 | inactive |
| EMC6 (ER membrane protein complex subunit 6) | 1.12 | inactive |
| EMC6 (ER membrane protein complex subunit 6) | 0.07 | inactive |
| EMC6 (ER membrane protein complex subunit 6) | -0.31 | inactive |
| F11R (F11 receptor) | 0.47 | inactive |
| F11R (F11 receptor) | -0.3 | inactive |
| F11R (F11 receptor) | 0.86 | inactive |
| F11R (F11 receptor) | -0.23 | inactive |
| NEUROD2 (neuronal differentiation 2) | -0.8 | inactive |
| NEUROD2 (neuronal differentiation 2) | -1.01 | inactive |
| NEUROD2 (neuronal differentiation 2) | -1.34 | inactive |
| NEUROD2 (neuronal differentiation 2) | -1.15 | inactive |
| OR2J2 (olfactory receptor family 2 subfamily J member 2) | 0.49 | inactive |
| OR2J2 (olfactory receptor family 2 subfamily J member 2) | -0.74 | inactive |
| OR2J2 (olfactory receptor family 2 subfamily J member 2) | -0.85 | inactive |
| OR2J2 (olfactory receptor family 2 subfamily J member 2) | -1.1 | inactive |
| AOC3 (amine oxidase copper containing 3) | 1.51 | inactive |
| AOC3 (amine oxidase copper containing 3) | 2.42 | inactive |
| AOC3 (amine oxidase copper containing 3) | 1.5 | inactive |
| AOC3 (amine oxidase copper containing 3) | 1.6 | inactive |
| H2AC13 (H2A clustered histone 13) | 2.5 | inactive |
| H2AC13 (H2A clustered histone 13) | 2.24 | inactive |
| H2AC13 (H2A clustered histone 13) | 1.9 | inactive |
| H2AC13 (H2A clustered histone 13) | 2.62 | inactive |
| RFPL4AL1 (ret finger protein like 4A like 1) | -0.11 | inactive |
| RFPL4AL1 (ret finger protein like 4A like 1) | 1.15 | inactive |
| RFPL4AL1 (ret finger protein like 4A like 1) | -0.85 | inactive |
| RFPL4AL1 (ret finger protein like 4A like 1) | 0.81 | inactive |
| ZNF549 (zinc finger protein 549) | 0.52 | inactive |
| ZNF549 (zinc finger protein 549) | -0.34 | inactive |
| ZNF549 (zinc finger protein 549) | -0.65 | inactive |
| ZNF549 (zinc finger protein 549) | 0.37 | inactive |
| CRB2 (crumbs cell polarity complex component 2) | 0.38 | inactive |
| CRB2 (crumbs cell polarity complex component 2) | -0.39 | inactive |
| CRB2 (crumbs cell polarity complex component 2) | 0.62 | inactive |
| CRB2 (crumbs cell polarity complex component 2) | 1.41 | inactive |
| NIF3L1 (NGG1 interacting factor 3 like 1) | 0.84 | inactive |
| NIF3L1 (NGG1 interacting factor 3 like 1) | 1.15 | inactive |
| NIF3L1 (NGG1 interacting factor 3 like 1) | 1.55 | inactive |
| NIF3L1 (NGG1 interacting factor 3 like 1) | 0.83 | inactive |
| STMN1 (stathmin 1) | -0.25 | inactive |
| STMN1 (stathmin 1) | -0.95 | inactive |
| STMN1 (stathmin 1) | -1.46 | inactive |
| STMN1 (stathmin 1) | -0.47 | inactive |
| PAQR8 (progestin and adipoQ receptor family member 8) | -0.38 | inactive |
| PAQR8 (progestin and adipoQ receptor family member 8) | 2.35 | inactive |
| PAQR8 (progestin and adipoQ receptor family member 8) | 0.24 | inactive |
| PAQR8 (progestin and adipoQ receptor family member 8) | 1.08 | inactive |
| JUND (JunD proto-oncogene, AP-1 transcription factor subunit) | 0.05 | inactive |
| JUND (JunD proto-oncogene, AP-1 transcription factor subunit) | -0.99 | inactive |
| JUND (JunD proto-oncogene, AP-1 transcription factor subunit) | 0.56 | inactive |
| JUND (JunD proto-oncogene, AP-1 transcription factor subunit) | -0.83 | inactive |
| PCDHA10 (protocadherin alpha 10) | 0.73 | inactive |
| PCDHA10 (protocadherin alpha 10) | 1.11 | inactive |
| PCDHA10 (protocadherin alpha 10) | 0.34 | inactive |
| PCDHA10 (protocadherin alpha 10) | 0.11 | inactive |
| CFAP206 (cilia and flagella associated protein 206) | -0.88 | inactive |
| CFAP206 (cilia and flagella associated protein 206) | -0.48 | inactive |
| CFAP206 (cilia and flagella associated protein 206) | 0.47 | inactive |
| CFAP206 (cilia and flagella associated protein 206) | 0.34 | inactive |
| PPIC (peptidylprolyl isomerase C) | -1.01 | inactive |
| PPIC (peptidylprolyl isomerase C) | 0.94 | inactive |
| PPIC (peptidylprolyl isomerase C) | -0.28 | inactive |
| PPIC (peptidylprolyl isomerase C) | -0.33 | inactive |
| ODAD2 (outer dynein arm docking complex subunit 2) | 4.46 | active |
| ODAD2 (outer dynein arm docking complex subunit 2) | 3.82 | active |
| ODAD2 (outer dynein arm docking complex subunit 2) | -0.12 | inactive |
| ODAD2 (outer dynein arm docking complex subunit 2) | -0.88 | inactive |
| AK3 (adenylate kinase 3) | -0.26 | inactive |
| AK3 (adenylate kinase 3) | -0.55 | inactive |
| AK3 (adenylate kinase 3) | -0.62 | inactive |
| AK3 (adenylate kinase 3) | -0.15 | inactive |
| EHBP1 (EH domain binding protein 1) | -0.19 | inactive |
| EHBP1 (EH domain binding protein 1) | 0.17 | inactive |
| EHBP1 (EH domain binding protein 1) | 0.25 | inactive |
| EHBP1 (EH domain binding protein 1) | 0.31 | inactive |
| CDC42SE1 (CDC42 small effector 1) | -0.58 | inactive |
| CDC42SE1 (CDC42 small effector 1) | -0.24 | inactive |
| CDC42SE1 (CDC42 small effector 1) | -1.32 | inactive |
| CDC42SE1 (CDC42 small effector 1) | -0.6 | inactive |
| PRRC2A (proline rich coiled-coil 2A) | -0.49 | inactive |
| PRRC2A (proline rich coiled-coil 2A) | -0.06 | inactive |
| PRRC2A (proline rich coiled-coil 2A) | 0.69 | inactive |
| PRRC2A (proline rich coiled-coil 2A) | 1.17 | inactive |
